From publication PMC11535546 come the findings set out here.

Positions count from the first letter of the chain named. Results are given in words; binding and its absence hold for the method and conditions named. Binding seen in cells or lysates may run through a third protein. Some entries that bind do so weakly or less than the wild type.

Holding throughout (assay): co-IP; transfected proteins; cell lysates in MLB (20 mM Tris-HCl, 200 mM NaCl, 1% NP-40, pH 7.5), immunoprecipitation with anti-Flag (M2), anti-Myc or anti-HA, 3 to 4 washes, immunoblot; in some panels with co-expressed TBK1 or Zyxin
A general note: In western blotting, separated proteins are transferred to a membrane and probed.

Experiment [1] addresses T1, TBK1, wild-type, transfected (human) (UniProt Q9UHD2).
T1 sequence: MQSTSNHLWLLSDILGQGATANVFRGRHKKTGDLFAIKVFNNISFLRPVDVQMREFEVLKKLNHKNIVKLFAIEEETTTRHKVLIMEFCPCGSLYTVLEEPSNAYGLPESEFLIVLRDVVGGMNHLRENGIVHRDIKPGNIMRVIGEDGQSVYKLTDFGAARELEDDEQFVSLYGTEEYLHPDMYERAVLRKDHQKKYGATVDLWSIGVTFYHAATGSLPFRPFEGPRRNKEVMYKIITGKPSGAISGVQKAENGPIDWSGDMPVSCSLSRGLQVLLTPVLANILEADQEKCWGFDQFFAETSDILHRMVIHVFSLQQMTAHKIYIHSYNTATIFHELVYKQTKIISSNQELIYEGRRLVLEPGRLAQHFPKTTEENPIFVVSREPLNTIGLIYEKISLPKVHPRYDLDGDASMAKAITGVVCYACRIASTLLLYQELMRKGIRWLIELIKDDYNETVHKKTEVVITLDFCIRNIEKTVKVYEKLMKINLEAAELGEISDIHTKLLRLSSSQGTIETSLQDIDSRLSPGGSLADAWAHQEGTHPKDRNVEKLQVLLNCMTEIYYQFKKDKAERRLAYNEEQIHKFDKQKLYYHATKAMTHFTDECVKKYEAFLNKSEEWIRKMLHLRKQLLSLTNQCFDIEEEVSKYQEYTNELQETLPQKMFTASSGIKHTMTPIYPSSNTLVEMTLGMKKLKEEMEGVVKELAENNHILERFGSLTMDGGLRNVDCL

Experiment [2] addresses T2, TBK1 truncation a.a. 1-382 (N-terminal kinase domain and ULD) (human) (UniProt Q9UHD2).
T2 sequence: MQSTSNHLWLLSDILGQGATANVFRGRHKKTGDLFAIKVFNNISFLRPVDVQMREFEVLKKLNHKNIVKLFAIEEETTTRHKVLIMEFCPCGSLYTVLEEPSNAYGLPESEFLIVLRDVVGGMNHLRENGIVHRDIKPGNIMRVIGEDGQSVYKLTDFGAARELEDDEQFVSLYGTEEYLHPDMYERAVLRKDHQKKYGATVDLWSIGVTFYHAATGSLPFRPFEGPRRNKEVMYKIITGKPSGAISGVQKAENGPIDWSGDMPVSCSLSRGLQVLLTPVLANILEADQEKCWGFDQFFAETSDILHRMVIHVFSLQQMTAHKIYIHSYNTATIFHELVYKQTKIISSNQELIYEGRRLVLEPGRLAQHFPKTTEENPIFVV

Experiment [3] concerns the target T3, TBK1 kinase-dead (K38A), transfected (human) (UniProt Q9UHD2).
T3 sequence: T1 sequence with K38A

B1: LIM domain of Zyxin (a.a. 380-572) (domain or fragment, UniProt Q15942 380-572)
chain: VNELCGRCHQPLARAQPAVRALGQLFHIACFTCHQCAQQLQGQQFYSLEGAPYCEGCYTDTLEKCNTCGEPITDRMLRATGKAYHPHCFTCVVCARPLEGTSFIVDQANRPHCVPDYHKQYAPRCSVCSEPIMPEPGRDETVRVVALDKNFHMKCYKCEDCGKPLSIEADDNGCFPLDGHVLCRKCHTARAQT
For the molecule B1, the binding entry in experiment [1] is on record as “binds”.

B2: Zyxin, wild type, expressed from pRK5 (protein, UniProt Q15942 1-572)
chain: MAAPRPSPAISVSVSAPAFYAPQKKFGPVVAPKPKVNPFRPGDSEPPPAPGAQRAQMGRVGEIPPPPPEDFPLPPPPLAGDGDDAEGALGGAFPPPPPPIEESFPPAPLEEEIFPSPPPPPEEEGGPEAPIPPPPQPREKVSSIDLEIDSLSSLLDDMTKNDPFKARVSSGYVPPPVATPFSSKSSTKPAAGGTAPLPPWKSPSSSQPLPQVPAPAQSQTQFHVQPQPQPKPQVQLHVQSQTQPVSLANTQPRGPPASSPAPAPKFSPVTPKFTPVASKFSPGAPGGSGSQPNQKLGHPEALSAGTGSPQPPSFTYAQQREKPRVQEKQHPVPPPAQNQNQVRSPGAPGPLTLKEVEELEQLTQQLMQDMEHPQRQNVAVNELCGRCHQPLARAQPAVRALGQLFHIACFTCHQCAQQLQGQQFYSLEGAPYCEGCYTDTLEKCNTCGEPITDRMLRATGKAYHPHCFTCVVCARPLEGTSFIVDQANRPHCVPDYHKQYAPRCSVCSEPIMPEPGRDETVRVVALDKNFHMKCYKCEDCGKPLSIEADDNGCFPLDGHVLCRKCHTARAQT
On to B2, for which the binding entry in experiment [2], in experiment [1] and in experiment [3] was “binds” each time.
